Structures are written as SMILES. Some of the results follow. Entries with a potency or affinity are not part of this list.

The subject of this assay is Pseudomonas aeruginosa. To be noted: Concentration 32 ug.mL-1; ASSAY_TEST Inhibition of Bacterial Growth; detection method Absorption (OD600); MEDIA CAMHB; plate type 384well; NBS; CORNING #3640; time 18 hr.
In general, Inhibition refers to the drop in the measured response relative to a control, in per cent. Take `CCN(CC)CC.C[C@@H](CC1O[C@H]([C@@H](O)CO)[C@@H](O)[C@H](O)[C@@H]1O)OP(=O)(O)OC[C@H]1O[C@@H](n2cnc3c(N)ncnc32)[C@H](O)[C@@H]1O` (stereo not given in full): the Inhibition worked out at 6.57%. With `CCN(CC)CC.O=P(O)(O)OC1C[C@@H](O)[C@H](O)[C@@H]([C@H](O)CO)O1` (stereo not given in full) the figure was -10.41%; with `OC[C@@H](O)[C@H]1OC(O)C[C@@H](O)[C@@H]1O` (stereo not given in full), -15.39%; with `N.O=C(O)C1(O)C[C@@H](O)[C@H](O)[C@@H]([C@@H](O)CO)O1` (stereo not given in full), -0.96%. Turning to `CC(=O)CC1O[C@H]([C@@H](O)CO)[C@@H](O)[C@H](O)[C@@H]1O` (stereo not given in full), the Inhibition is given as -9.26%. Then `CCN(CC)CC.C[C@H](CC1O[C@H]([C@@H](O)CO)[C@@H](O)[C@H](O)[C@@H]1O)OP(=O)(O)O` (stereo not given in full), with 3.72%; and `CCN(CC)CC.C[C@H](CC1O[C@H]([C@@H](O)CO)[C@@H](O)[C@H](O)[C@@H]1O)OP(=O)(O)OC[C@H]1O[C@@H](n2cnc3c(N)ncnc32)[C@H](O)[C@@H]1O` (stereo not given in full), with 9.79%. Then `CCN(CC)CC.C[C@@H](CC1O[C@H]([C@@H](O)CO)[C@@H](O)[C@H](O)[C@@H]1O)OP(=O)(O)O` (stereo not given in full), with -4.62%; and `CCN(CC)CC.C[C@H](CC1O[C@H]([C@H](O)CO)[C@@H](O)[C@H](O)[C@@H]1O)OP(=O)(O)OC[C@H]1O[C@@H](n2cnc3c(N)ncnc32)[C@H](O)[C@@H]1O` (stereo not given in full), with 8.73%.

For the compound `CCN(CC)CC.C[C@@H](CC1O[C@H]([C@H](O)CO)[C@@H](O)[C@H](O)[C@@H]1O)OP(=O)(O)OC[C@H]1O[C@@H](n2cnc3c(N)ncnc32)[C@H](O)[C@@H]1O` (stereo not given in full), the Inhibition is recorded as -17.68%.

These data come from ChEMBL document CHEMBL4513143, “CO-ADD screening of University of Natural Resources and Life (Austria) compounds”.
